Experimental data as given in PubChem BioAssay AID1439 (NMMLSC, 2008).
Among all 220,000 compounds or so, about 770 (0.35%) were called active. The inconclusive results got no clear call from the source; some entries with a clear call stand among them for comparison. No stated cut-off is given here; in the data, active means binding response below about 49% or above about 150%; inconclusive means no clear call, values can overlap the other calls; inactive means in between.

Amino acid sequences for entries named in this document (tags omitted).
UniProt P09471, whole entry, looked up: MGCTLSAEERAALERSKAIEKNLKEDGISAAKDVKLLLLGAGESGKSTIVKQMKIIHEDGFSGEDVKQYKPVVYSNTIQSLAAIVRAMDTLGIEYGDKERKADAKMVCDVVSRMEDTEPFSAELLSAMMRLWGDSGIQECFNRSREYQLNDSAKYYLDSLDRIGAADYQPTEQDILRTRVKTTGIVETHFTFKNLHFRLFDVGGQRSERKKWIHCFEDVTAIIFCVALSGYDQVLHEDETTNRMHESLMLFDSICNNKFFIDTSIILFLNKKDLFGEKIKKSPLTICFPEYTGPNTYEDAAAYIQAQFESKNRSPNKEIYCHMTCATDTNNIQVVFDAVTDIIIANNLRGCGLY

target: Guanine nucleotide-binding protein G(o) subunit alpha (Homo sapiens) (UniProt P09471); assay: RGS7-Galphao binding modulators, primary screen, biochemical, multiplexed bead flow cytometry (AID 1439); settings: at 10 µM, actives lie on both sides;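 further: fluorescent Galphao held in activated GDP-AlF4 state binding bead-coupled RGS7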

| Compound | binding response (% of control) |
| --- | --- |
| COc1cc(C(=O)NCc2ccc3[nH]c(C)cc3c2)cc(OC)c1OC | inactive: 100% |
| CN(CC(=O)N1CCCCCC1)S(=O)(=O)c1ccc(F)cc1 | inactive: 96.7% |
| COc1ccc2[nH]c(C(=O)Nc3ccc(F)cc3Br)cc2c1 | inconclusive: 87% |
| COc1ccccc1CNC(=O)C1CCC(CNc2c(N3CCC(C)CC3)c(=O)c2=O)CC1 (stereo not given) | inconclusive: 95.1% |
| COc1ccc2[nH]c3c(C)c4ccncc4c(C)c3c2c1 | inconclusive: 105% |
| O=C(COc1ccc2c(c1)OCO2)NC12CC3CC(CC(C3)C1)C2 | inactive: 117% |
| CCN(CC)C(=S)SC1CCCCN(C(=O)c2ccc(F)cc2)C1=O (stereo not given) | inconclusive: 107% |
| Cc1nn(-c2ccccc2)nc1C(=O)Nc1ccc2[nH]ncc2c1 | inconclusive: 39.7% |
| COc1ccc(NC(=O)C2CC(=O)N/C(=N/N=C/c3ccco3)S2)cc1 (stereo not given) | inconclusive: 101% |
| COc1ccc(NC(=O)c2sc3nc(-c4cccnc4)ccc3c2N)cc1OC | inconclusive: 142% |
| NC(=O)CSc1nc2c(sc3ccccc32)c(=O)n1CCCC(=O)NCC1CCCO1 (stereo not given) | inconclusive: 101% |
| O=C(Sc1ccccc1)c1cccc(Cn2cc(C(F)(F)F)ccc2=O)c1 | inconclusive: 109% |
| CCCc1nc2oc3c(NCC(C)O)ncnc3c2c2c1CCCC2 (stereo not given) | inconclusive: 46.1% |
| C=CCNC(=O)/C(=C\c1ccc(Br)cc1)NC(=O)c1ccccc1OC | inconclusive: 102% |
| CCCS(=O)(=O)Nc1cccc(-c2nc3cccnc3s2)c1 | inconclusive: 2.95% |
| CN(C)S(=O)(=O)c1ccc(Cl)c(NC(=O)COC(=O)CNC(=O)c2ccco2)c1 | inconclusive: 94.8% |
| O=C(NC(=S)NNS(=O)(=O)c1ccc(Cl)cc1)c1cccnc1 | inactive: 101% |
| CC(C)CN(C(=O)CSc1nnnn1-c1ccccc1)c1c(N)n(CC(C)C)c(=O)[nH]c1=O | inconclusive: 67.1% |
| C=CCN(c1ccccc1C(=O)O)S(=O)(=O)c1ccc(NC(=O)OC)cc1 | inconclusive: 103% |
| O=C1/C(=C/C=C/c2ccccc2)Oc2c1ccc(O)c2CN1CCN(CCO)CC1 | inconclusive: 91.1% |
| Cn1c(=O)c([N+](=O)[O-])c(-n2cnc3ccccc32)c2ccccc21 | inconclusive: 73% |
| O=C1NC(=O)/C(=C/c2ccccc2OCc2ccccc2)S1 | inconclusive: 91.8% |
| O=C(c1ccc(-c2cccc(Cl)c2Cl)o1)N1CCOCC1 | inconclusive: 121% |
| O=C(O)c1cc(NN=C2CCN(Cc3ccccc3)CC2)ccc1Cl | inconclusive: 90.6% |
| O=C(Nc1ccc(Cl)cn1)c1cc2c(s1)-c1ccccc1OC2 | inconclusive: 95.1% |
| Nc1cnc(CNc2ccccc2Cl)cn1 | inconclusive: 86.2% |
| CCCn1c(C)cc(C(=O)COC(=O)c2ccc[nH]c2=O)c1C | inactive: 95.4% |
| CCN(CC(=O)Nc1ccc(OC)c(Cl)c1)CC(=O)NC(C)C | inactive: 101% |

Exported as tab-separated lines: part of the list above
Compound	binding response (% of control)
COc1ccccc1CNC(=O)C1CCC(CNc2c(N3CCC(C)CC3)c(=O)c2=O)CC1 (stereo not given)	inconclusive: 95.1%
COc1ccc2[nH]c3c(C)c4ccncc4c(C)c3c2c1	inconclusive: 105%

Further entries:

| Compound | binding response (% of control) |
| --- | --- |
| CS(=O)(=O)c1sc(C(=O)NC(=O)Nc2cccc(C(F)(F)F)c2)c2c1C=CCC2 | inconclusive: 137% |
| Cc1cc(C)[n+](C)n1CC(O)Cn1c2ccccc2c2ccccc21 (stereo not given) | inconclusive: 92.5% |
| COC(=O)C1=C(C(=O)OC)[C@@H]2N(C)c3ccc(OC)cc3[C@@]23C[C@@H](C(=O)OC)N(S(=O)(=O)c2ccc([N+](=O)[O-])cc2)C3=N1 | inconclusive: 103% |
| CC(C)NC(=O)NC(=O)COC(=O)c1cc[n+]([O-])cc1 | inconclusive: 98.4% |
| COc1ccc(-c2cn3ccc4ccccc4c3n2)cc1 | inactive: 93.9% |
| O=c1c2ccccc2sn1-c1cc(S(=O)(=O)N2CCOCC2)ccc1N1CCOCC1 | inactive: 123% |
| COc1cccc(NC(=O)CN(C)C(C)C(=O)Nc2ccc(S(=O)(=O)N3CCCC3)cc2)c1 (stereo not given) | inconclusive: 108% |
| CCOC(=O)c1cc2[nH]c3ccccc3c2[n+](-c2ccc([N+](=O)[O-])cc2)c1N | inactive: 102% |
| Nc1nc(-c2cc(Cl)cc(Cl)c2OC(F)F)cs1 | inactive: 85.3% |
| CN1C[C@@H]2C(c3ccccc3)C3(c4cccnc4)CC2(C3)[C@H]1c1ccccc1 (stereo not given in full) | inconclusive: 61.7% |
| COc1ccccc1/C=C/C(=O)OCC(=O)Nc1ccc(Cl)cn1 | inconclusive: 141% |
| COC(=O)CCCC1=CC2=CC(=O)C(C)(OC(=O)C3CCCC3)C(=O)C2=CO1 (stereo not given) | inconclusive: 17.1% |
| O=C(COC(=O)c1ccc(Br)o1)Nc1ncc(Cl)cc1Cl | inactive: 104% |
| O=C(CN1CCN(Cc2ccc(Cl)cc2)CC1)N/N=C/c1ccccc1F | inconclusive: 72.1% |
| Cc1cc(/C=N/Nc2nc(N)ncc2[N+](=O)[O-])c(C)n1-c1cccc(C(F)(F)F)c1 | inconclusive: 94.2% |
| CN1CCC(=C(c2ccc(Cl)cc2)c2ccccn2)CC1 | inconclusive: 86.3% |
| CCc1nnc(NC(=O)C2CCC(CNc3c(N4CCC(C)CC4)c(=O)c3=O)CC2)s1 (stereo not given) | inconclusive: 110% |
| Cc1ccc(NC(=O)CCCN2C(=S)NC(C)(C)CC2C)cc1 (stereo not given) | inconclusive: 95.2% |
| N#CCC(=N)N1CCN(c2ccc(F)cc2)CC1 | inactive: 101% |
| CNc1nc(-c2ccc3c(c2)CCN3C(=O)c2ccc(F)cc2)cs1 | inactive: 100% |
| CCC1=C2CC[C@H]3C(=O)N(CC)C(=O)[C@H]3[C@H]2[C@@]2(Cc3ccccc3)C(=NCCOC)OC(=O)N2C1=O | inconclusive: 94.3% |
| NC(=O)N/N=C/c1cn(CC(=O)Nc2ccc(F)cc2)c2ccccc12 | inconclusive: 66.9% |
| O=C(CN1C(=O)c2ccccc2C1=O)NCc1ccc(N2CCOCC2)cc1 | inconclusive: 235% |
| Cc1ccc(/C=N\NC(=O)C2CC(=O)N(c3ccccc3)C2)o1 (stereo not given) | inconclusive: 28.3% |
| O=C(CCn1cccc(C(F)(F)F)c1=O)Nc1cccc(C(F)(F)F)c1 | inconclusive: 100% |
| CCN1CCN(C(=S)c2ccc(OC)cc2)CC1 | inconclusive: 74.6% |
| CC(C)(C)C(=O)Nc1c(Cl)cccc1OC(F)(F)F | inconclusive: 229% |
